Laboratory results: PubChem BioAssay AID1259254 (NCATS, 2017)

- Test: 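Finding genes that stop cells copying their DNA twice in one cycle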 (primary screen)
- Cell system: human HCT116 colorectal cancer cells
- Knock-down reagent: single siRNA against human genes
- Time to read-out: 3 days
- Measurement: 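Imaged Hoechst DNA stain sorts each cell into a cycle phase by DNA amount; per plate, G2 fraction set to 0% for non-targeting and 100% for GMNN siRNA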
- Scale: G2 robust z-score and G2 cells, % of GMNN control: higher = more G2 cells, more excess DNA replication; raw share of cells in G2: higher = larger share of cells with G2 DNA content
- Call rule: 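An siRNA counts as active if its G2 robust z-score lies at least 5 MADs above the screen median; here such calls match roughly 38% of GMNN control or more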
The whole screen tested about 59,000 reagents; below is a random part of them. About 1,550 of them (2.6%) were called active. 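G2 share is only a proxy for re-replication; each gene was hit by three separate siRNAs, and active genes were retested.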 Raw values are not corrected between plates. No sequences are given here. The record does not give: the amount of reagent.

gene knocked down,PubChem SID,G2 robust z-score,"G2 cells, % of GMNN control",raw share of cells in G2 (%),call
TTN,SID160718433,-0.69,-1.89,4.8,inactive
TTN,SID160718434,0.648,7.53,6.96,inactive
TTN,SID160718435,-0.0184,2.84,5.32,inactive
TBC1D22B,SID160743959,-1.31,-6.26,2.12,inactive
TBC1D22B,SID160743960,1.03,10.2,8.38,inactive
TBC1D22B,SID160743961,-1.03,-4.26,1.78,inactive
NFATC1,SID160777984,-1.2,-5.5,1.28,inactive
NFATC1,SID160777985,-0.746,-2.28,3.78,inactive
NFATC1,SID160777986,0.36,5.5,5.1,inactive
ST13P8,SID160733074,3.98,31,16.7,inactive
ST13P8,SID160764113,0.25,4.72,5.61,inactive
ST13P8,SID160764114,-0.559,-0.965,2.84,inactive
PRMT1,SID160775325,1.09,10.6,8.09,inactive
PRMT1,SID160775326,-0.428,-0.0424,5.67,inactive
PRMT1,SID160775327,-0.23,1.35,5.54,inactive
GP2,SID160732915,0.344,5.38,5.63,inactive
GP2,SID160772693,-0.56,-0.972,4.85,inactive
GP2,SID160772699,0.55,6.83,6.59,inactive
RXYLT1,SID160728188,-0.844,-2.97,3.99,inactive
RXYLT1,SID160728189,0.737,8.16,7.35,inactive
RXYLT1,SID160728190,0.532,6.71,5.85,inactive
PNPLA10P,SID160768992,-0.098,2.28,4.5,inactive
PNPLA10P,SID160768993,5.02,38.3,17,active
PNPLA10P,SID160768994,0.214,4.47,4.45,inactive
UBE2Q1,SID160743838,0.228,4.57,6.24,inactive
UBE2Q1,SID160743840,-1.21,-5.51,2.46,inactive
UBE2Q1,SID160743841,0.296,5.05,8.64,inactive
YBX1,SID160731309,-0.484,-0.436,4.57,inactive
YBX1,SID160778252,0.235,4.62,4.78,inactive
YBX1,SID160778253,2.45,20.2,12.8,inactive
SPRTN,SID160751544,0.601,7.2,6.5,inactive
SPRTN,SID160751546,-0.419,0.0173,3.46,inactive
SPRTN,SID160751547,1.74,15.2,7.03,inactive
TBC1D15,SID160747984,0.72,8.03,8.08,inactive
TBC1D15,SID160747985,-1.17,-5.27,2.25,inactive
TBC1D15,SID160747986,-0.948,-3.7,1.72,inactive
FN1,SID160730840,-0.168,1.79,4.29,inactive
FN1,SID160766898,2.35,19.5,12.3,inactive
FN1,SID160766908,1.51,13.6,10.4,inactive
PIP5K1B,SID160719952,-1.42,-7.03,3.29,inactive
PIP5K1B,SID160719953,-0.726,-2.14,4.69,inactive
PIP5K1B,SID160719954,-0.0114,2.89,5.04,inactive
FPGS,SID160767159,1.02,10.1,8.92,inactive
FPGS,SID160767169,-1.43,-7.08,2.57,inactive
FPGS,SID160767181,-1.1,-4.75,1.97,inactive
AREG,SID160719476,0.074,3.49,5.29,inactive
AREG,SID160719487,-0.0121,2.88,5.7,inactive
AREG,SID160719498,-0.38,0.297,5.18,inactive
ASS1,SID160720908,1.15,11,8.47,inactive
ASS1,SID160720918,1.1,10.7,8.88,inactive
ASS1,SID160720929,-0.607,-1.3,3.51,inactive
HNRNPH2,SID160775135,1.28,12,10.9,inactive
HNRNPH2,SID160775136,5.32,40.4,18.9,active
HNRNPH2,SID160775137,-0.58,-1.12,3.09,inactive
ADRA2B,SID160714989,-0.259,1.15,6.25,inactive
ADRA2B,SID160715000,-0.324,0.686,4.76,inactive
ADRA2B,SID160715011,3.06,24.5,10.8,inactive
ATIC,SID160721131,0.0145,3.07,5.76,inactive
ATIC,SID160721142,-0.596,-1.23,4.64,inactive
ATIC,SID160721153,-0.192,1.61,4.59,inactive
PSG11,SID160715160,-0.865,-3.12,3.65,inactive
PSG11,SID160715161,-0.0295,2.76,5.31,inactive
PSG11,SID160715162,0.812,8.68,6.49,inactive
MNDA,SID160777387,0.43,6,5.84,inactive
MNDA,SID160777388,-0.493,-0.505,4.61,inactive
MNDA,SID160777389,0.566,6.95,5.63,inactive
GOLGA4,SID160772536,-0.737,-2.22,4.26,inactive
GOLGA4,SID160772546,-0.219,1.43,4.61,inactive
GOLGA4,SID160772554,-0.359,0.442,3.7,inactive

11 entries from above, sorted by “raw share of cells in G2 (%)”, lowest first:
gene knocked down,PubChem SID,G2 robust z-score,"G2 cells, % of GMNN control",raw share of cells in G2 (%),call
TBC1D15,SID160747986,-0.948,-3.7,1.72,inactive
TBC1D15,SID160747985,-1.17,-5.27,2.25,inactive
PIP5K1B,SID160719952,-1.42,-7.03,3.29,inactive
FN1,SID160730840,-0.168,1.79,4.29,inactive
PIP5K1B,SID160719953,-0.726,-2.14,4.69,inactive
PIP5K1B,SID160719954,-0.0114,2.89,5.04,inactive
SPRTN,SID160751547,1.74,15.2,7.03,inactive
TBC1D15,SID160747984,0.72,8.03,8.08,inactive
FPGS,SID160767159,1.02,10.1,8.92,inactive
FN1,SID160766908,1.51,13.6,10.4,inactive
FN1,SID160766898,2.35,19.5,12.3,inactive
